Data reported in the supplement of paper PMC6411743.
± gives the standard deviation of the averaged measurements. This is a selection; strong and weak results do not stand in their true shares. Small differences around the control level are noise.

By UniProt entry, the sequences of proteins in these tests, tags left out. Where a name states a change or a piece, a line headed by the entry shows the natural chain unless it says otherwise.
UniProt Q9Y3D0: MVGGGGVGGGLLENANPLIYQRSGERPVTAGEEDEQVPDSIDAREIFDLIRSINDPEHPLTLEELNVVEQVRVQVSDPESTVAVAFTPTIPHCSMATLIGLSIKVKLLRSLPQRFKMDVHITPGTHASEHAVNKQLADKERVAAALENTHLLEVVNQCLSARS
UniProt Q9Y320, whole entry: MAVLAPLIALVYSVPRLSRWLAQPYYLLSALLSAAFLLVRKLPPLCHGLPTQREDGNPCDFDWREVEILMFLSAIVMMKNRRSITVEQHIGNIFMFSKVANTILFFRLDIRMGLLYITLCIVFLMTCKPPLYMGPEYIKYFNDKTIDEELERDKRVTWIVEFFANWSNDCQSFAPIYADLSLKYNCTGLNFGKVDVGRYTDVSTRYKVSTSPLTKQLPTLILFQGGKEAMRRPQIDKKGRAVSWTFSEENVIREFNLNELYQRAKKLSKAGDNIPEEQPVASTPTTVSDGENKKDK
UniProt Q9Y3B4: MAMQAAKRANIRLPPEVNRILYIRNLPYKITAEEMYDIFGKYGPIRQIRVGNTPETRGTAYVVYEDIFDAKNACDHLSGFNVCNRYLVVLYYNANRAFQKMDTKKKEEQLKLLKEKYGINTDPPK
UniProt Q9Y2R4: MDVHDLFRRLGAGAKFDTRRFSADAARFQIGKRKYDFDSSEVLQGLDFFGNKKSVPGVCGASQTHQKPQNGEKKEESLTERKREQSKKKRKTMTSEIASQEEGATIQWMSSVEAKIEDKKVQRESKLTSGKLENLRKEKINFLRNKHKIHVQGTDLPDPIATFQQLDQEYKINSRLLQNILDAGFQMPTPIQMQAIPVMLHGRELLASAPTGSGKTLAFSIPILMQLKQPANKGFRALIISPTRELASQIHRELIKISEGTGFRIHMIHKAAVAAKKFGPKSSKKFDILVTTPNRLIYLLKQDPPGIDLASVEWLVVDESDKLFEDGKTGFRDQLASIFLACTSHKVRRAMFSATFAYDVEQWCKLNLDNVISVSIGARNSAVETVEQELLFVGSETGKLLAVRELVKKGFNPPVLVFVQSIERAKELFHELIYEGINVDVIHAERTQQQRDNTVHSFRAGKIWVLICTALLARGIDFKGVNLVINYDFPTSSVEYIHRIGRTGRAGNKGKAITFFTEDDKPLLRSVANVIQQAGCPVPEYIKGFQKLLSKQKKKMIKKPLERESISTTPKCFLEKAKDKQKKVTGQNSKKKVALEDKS
UniProt Q9Y692: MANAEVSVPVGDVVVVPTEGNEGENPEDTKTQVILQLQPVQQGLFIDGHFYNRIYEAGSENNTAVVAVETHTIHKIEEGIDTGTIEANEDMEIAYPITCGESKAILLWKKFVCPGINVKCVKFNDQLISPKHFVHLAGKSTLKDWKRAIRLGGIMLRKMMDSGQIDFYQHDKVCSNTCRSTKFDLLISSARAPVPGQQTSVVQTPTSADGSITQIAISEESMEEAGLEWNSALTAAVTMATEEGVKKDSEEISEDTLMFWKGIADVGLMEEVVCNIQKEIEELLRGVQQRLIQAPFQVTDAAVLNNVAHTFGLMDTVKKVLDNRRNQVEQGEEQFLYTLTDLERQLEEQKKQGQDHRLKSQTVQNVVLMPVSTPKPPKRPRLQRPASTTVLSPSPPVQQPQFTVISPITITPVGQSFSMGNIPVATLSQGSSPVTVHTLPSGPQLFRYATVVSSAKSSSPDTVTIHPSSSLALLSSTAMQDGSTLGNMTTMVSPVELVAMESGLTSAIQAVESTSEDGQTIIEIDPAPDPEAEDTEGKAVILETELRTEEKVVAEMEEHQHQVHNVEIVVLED
UniProt Q9Y6I9: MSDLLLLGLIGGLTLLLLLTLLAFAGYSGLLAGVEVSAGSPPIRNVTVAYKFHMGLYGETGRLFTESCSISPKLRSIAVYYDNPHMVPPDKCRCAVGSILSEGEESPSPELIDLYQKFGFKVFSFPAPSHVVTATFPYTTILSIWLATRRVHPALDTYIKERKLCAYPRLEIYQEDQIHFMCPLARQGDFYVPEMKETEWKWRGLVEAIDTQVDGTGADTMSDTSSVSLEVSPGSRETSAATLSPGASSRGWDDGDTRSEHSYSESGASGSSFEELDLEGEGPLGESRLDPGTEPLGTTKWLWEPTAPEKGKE
UniProt Q9Y303: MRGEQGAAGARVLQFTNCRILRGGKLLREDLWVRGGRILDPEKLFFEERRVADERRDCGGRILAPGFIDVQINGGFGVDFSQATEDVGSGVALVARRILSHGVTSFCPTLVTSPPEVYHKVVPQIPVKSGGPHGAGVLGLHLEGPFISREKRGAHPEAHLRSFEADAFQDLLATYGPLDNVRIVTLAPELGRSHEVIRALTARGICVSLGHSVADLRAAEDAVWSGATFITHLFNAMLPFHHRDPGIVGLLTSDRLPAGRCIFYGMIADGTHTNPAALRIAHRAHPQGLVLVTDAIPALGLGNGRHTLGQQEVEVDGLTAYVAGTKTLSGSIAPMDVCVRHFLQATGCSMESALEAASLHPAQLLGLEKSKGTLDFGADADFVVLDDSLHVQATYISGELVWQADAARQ
UniProt Q9Y2X3: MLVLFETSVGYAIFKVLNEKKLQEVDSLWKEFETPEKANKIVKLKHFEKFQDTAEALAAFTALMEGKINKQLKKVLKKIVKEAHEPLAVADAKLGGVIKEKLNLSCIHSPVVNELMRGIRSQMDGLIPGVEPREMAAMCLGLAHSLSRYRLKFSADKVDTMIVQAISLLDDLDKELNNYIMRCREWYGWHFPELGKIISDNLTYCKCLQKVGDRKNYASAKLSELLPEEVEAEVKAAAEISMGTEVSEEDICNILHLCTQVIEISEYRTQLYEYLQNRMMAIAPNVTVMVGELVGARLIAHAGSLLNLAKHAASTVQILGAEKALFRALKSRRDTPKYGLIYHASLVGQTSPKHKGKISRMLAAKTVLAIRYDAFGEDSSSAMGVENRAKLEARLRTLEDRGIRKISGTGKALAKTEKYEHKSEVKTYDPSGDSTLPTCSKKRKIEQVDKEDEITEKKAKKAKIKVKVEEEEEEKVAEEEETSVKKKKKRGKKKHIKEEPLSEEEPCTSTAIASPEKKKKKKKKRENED
UniProt Q9Y2U8: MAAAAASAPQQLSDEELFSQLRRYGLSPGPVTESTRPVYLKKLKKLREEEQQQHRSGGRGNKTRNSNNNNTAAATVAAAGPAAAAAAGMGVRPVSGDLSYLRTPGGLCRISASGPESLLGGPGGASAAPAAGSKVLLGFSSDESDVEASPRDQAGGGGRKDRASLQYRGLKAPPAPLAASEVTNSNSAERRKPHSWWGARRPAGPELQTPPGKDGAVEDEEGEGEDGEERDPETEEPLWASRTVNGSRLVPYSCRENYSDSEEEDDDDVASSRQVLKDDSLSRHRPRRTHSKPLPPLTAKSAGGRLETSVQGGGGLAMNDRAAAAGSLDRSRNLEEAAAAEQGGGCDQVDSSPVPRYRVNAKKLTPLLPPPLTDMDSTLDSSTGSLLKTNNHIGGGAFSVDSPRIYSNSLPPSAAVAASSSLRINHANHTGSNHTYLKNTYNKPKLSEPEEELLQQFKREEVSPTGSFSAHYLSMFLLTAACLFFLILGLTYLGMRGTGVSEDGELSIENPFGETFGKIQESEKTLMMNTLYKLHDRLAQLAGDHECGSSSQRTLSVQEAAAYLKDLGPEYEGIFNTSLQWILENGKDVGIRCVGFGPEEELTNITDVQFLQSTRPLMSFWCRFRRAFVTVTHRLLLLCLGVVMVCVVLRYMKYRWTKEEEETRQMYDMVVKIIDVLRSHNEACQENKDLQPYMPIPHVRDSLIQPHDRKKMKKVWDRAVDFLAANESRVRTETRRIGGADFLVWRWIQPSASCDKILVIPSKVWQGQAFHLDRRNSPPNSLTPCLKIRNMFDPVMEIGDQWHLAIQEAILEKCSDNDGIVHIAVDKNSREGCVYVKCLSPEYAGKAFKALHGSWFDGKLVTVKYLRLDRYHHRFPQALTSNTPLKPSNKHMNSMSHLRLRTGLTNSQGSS
UniProt Q9Y4P1: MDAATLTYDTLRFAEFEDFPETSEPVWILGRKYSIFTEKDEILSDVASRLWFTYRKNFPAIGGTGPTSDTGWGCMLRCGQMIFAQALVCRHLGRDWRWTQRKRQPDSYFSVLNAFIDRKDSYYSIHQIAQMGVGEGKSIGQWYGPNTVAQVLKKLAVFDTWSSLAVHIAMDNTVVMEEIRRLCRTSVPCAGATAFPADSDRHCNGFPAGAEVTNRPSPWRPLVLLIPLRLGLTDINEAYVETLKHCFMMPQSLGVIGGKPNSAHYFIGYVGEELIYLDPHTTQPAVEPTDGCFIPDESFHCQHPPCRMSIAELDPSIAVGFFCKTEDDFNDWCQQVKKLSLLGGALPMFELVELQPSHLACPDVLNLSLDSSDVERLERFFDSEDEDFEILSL
UniProt Q9Y5Y5: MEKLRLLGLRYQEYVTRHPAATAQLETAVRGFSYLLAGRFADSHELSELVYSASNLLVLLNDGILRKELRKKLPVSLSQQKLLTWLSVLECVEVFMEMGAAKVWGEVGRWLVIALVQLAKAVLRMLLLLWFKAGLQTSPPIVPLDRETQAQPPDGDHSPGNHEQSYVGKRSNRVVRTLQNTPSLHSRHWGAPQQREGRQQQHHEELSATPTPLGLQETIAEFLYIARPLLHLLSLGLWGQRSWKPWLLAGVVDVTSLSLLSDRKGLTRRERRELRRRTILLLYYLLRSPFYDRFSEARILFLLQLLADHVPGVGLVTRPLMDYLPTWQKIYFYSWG
UniProt Q9Y6I3: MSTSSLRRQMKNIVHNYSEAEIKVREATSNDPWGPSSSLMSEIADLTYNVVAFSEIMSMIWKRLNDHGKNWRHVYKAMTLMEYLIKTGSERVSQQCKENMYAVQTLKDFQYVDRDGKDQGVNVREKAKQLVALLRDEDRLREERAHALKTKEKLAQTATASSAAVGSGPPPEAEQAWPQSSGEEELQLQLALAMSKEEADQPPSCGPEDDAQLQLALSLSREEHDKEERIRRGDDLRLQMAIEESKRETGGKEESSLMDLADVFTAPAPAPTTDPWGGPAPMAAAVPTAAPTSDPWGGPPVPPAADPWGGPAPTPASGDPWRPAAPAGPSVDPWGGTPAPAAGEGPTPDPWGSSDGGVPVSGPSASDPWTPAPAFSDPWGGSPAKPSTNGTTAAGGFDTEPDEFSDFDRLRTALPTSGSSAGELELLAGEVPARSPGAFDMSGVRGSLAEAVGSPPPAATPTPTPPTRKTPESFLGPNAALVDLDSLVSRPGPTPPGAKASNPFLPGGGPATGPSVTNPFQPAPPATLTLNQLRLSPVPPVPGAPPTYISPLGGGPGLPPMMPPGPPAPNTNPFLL
UniProt Q9Y5S1: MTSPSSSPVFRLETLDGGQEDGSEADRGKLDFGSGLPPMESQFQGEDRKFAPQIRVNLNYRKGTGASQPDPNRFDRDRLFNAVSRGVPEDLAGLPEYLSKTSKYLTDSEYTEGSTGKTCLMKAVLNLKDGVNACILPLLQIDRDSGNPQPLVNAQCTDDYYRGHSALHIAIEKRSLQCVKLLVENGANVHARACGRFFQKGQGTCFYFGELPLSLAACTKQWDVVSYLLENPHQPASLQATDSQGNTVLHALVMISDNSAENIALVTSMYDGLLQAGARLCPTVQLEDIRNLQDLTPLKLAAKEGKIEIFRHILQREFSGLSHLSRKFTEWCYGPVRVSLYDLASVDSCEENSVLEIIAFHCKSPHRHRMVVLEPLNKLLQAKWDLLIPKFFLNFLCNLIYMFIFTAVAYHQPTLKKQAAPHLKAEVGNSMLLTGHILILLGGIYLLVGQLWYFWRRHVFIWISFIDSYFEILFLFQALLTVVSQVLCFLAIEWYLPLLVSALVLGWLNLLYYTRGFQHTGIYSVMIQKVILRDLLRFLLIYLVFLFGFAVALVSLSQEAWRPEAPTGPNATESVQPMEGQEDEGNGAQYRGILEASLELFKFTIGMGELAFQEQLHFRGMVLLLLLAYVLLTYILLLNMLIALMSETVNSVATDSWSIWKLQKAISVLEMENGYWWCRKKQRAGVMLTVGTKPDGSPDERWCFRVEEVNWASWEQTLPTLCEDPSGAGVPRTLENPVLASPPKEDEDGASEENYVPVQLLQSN
UniProt Q9Y3Q3: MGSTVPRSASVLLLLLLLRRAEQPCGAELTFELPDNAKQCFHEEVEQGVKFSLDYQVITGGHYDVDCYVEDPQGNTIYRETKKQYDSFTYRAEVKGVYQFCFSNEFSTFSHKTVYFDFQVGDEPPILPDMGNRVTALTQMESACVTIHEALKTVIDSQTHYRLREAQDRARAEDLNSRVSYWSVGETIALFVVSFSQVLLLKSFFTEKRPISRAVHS
UniProt Q9Y3C6: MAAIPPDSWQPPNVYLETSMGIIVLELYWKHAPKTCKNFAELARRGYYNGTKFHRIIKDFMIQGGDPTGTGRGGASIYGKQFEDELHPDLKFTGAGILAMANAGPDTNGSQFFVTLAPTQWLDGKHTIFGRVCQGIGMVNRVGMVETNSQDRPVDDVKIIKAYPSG

Compound: Nc1ncnc2c1ncn2[C@@H]1O[C@H](COP(=O)(O)OP(=O)(O)OP(=O)(O)O)[C@@H](O)[C@H]1O [adenosine triphosphate]
Test: NP40-soluble protein abundance relative to vehicle (solubility fold change) (ratio); higher = more soluble protein in presence of ATP
Method in brief: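 Eight concentrations, 0.1 to 10 mM, were tested on Jurkat crude lysate for 10 min at room temperature and then 3 min at 37 °C, in three independent experiments. The lysate was solubilised with 0.8% NP40 and benzonase, ultracentrifuged, and the supernatant TMT-labelled for LC-MS/MS. Each value is the fold change against the detergent-processed vehicle in its own replicate, from vsn-normalised intensities.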

Target	NP40-soluble protein abundance (concentration: 0.1mM)	NP40-soluble protein abundance (concentration: 0.5mM)	NP40-soluble protein abundance (concentration: 1mM)	NP40-soluble protein abundance (concentration: 2mM)	NP40-soluble protein abundance (concentration: 4mM)	NP40-soluble protein abundance (concentration: 6mM)	NP40-soluble protein abundance (concentration: 8mM)	NP40-soluble protein abundance (concentration: 10mM)
UniProt Q9Y3D0	0.909 ± 0.08	0.869 ± 0.12						
UniProt Q9Y6X3	0.9612 ± 0.0053	1.07 ± 0.046	0.977 ± 0.053	1.06 ± 0.086	1.15 ± 0.25	1.09 ± 0.26	0.98 ± 0.057	1.11 ± 0.22
UniProt Q9Y320 and related entries	1.04 ± 0.052	1.01 ± 0.078						
UniProt Q9Y3B4	1 ± 0.1	0.998 ± 0.11						
DDX52 (UniProt Q9Y2R4)	1.02 ± 0.082	1.07 ± 0.083	1.11 ± 0.11	1.16 ± 0.17	1.31 ± 0.27	1.41 ± 0.23	1.51 ± 0.37	1.71 ± 0.49
UniProt Q9Y692 and related entries	0.973 ± 0.05	1.02 ± 0.011						
TEX264 (UniProt Q9Y6I9)	0.965 ± 0.03	0.955 ± 0.022	0.918 ± 0.028	0.919 ± 0.024	0.91 ± 0.041	0.916 ± 0.061	0.867 ± 0.058	0.886 ± 0.029
MRPS2 (UniProt Q9Y399)	1.06 ± 0.18	0.993 ± 0.056	1.11 ± 0.13	0.951 ± 0.12	0.932 ± 0.071	0.917 ± 0.17	0.944 ± 0.12	0.884 ± 0.088
UniProt Q9Y303 and related entries	1.04 ± 0.034	1 ± 0.056	0.995 ± 0.056	1.03 ± 0.069	1.03 ± 0.083	0.973 ± 0.12	1.02 ± 0.086	0.995 ± 0.063
UniProt Q9Y6P5-2	1.13 ± 0.16	1.08 ± 0.068						
FHOD1 (UniProt Q9Y613)	1.01 ± 0.062	1.01 ± 0.092	0.963 ± 0.062	1.01 ± 0.085	1.02 ± 0.058	1.01 ± 0.078	0.952 ± 0.068	0.96 ± 0.055
UniProt Q9Y3B7 and related entries	0.889 ± 0.23	0.87 ± 0.18						
PPME1 (UniProt Q9Y570)	0.992 ± 0.042	1.03 ± 0.059	0.951 ± 0.039	0.972 ± 0.056	0.956 ± 0.037	0.933 ± 0.085	0.941 ± 0.023	0.953 ± 0.058
NOP58 (UniProt Q9Y2X3)	0.992 ± 0.051	0.999 ± 0.055	1.08 ± 0.062	1.1 ± 0.054	1.2 ± 0.054	1.35 ± 0.079	1.51 ± 0.042	1.71 ± 0.13
UniProt Q9Y2H0 and related entries	0.907 ± 0.043	0.887 ± 0.059	0.921 ± 0.038	0.899 ± 0.068	0.922 ± 0.045	0.944 ± 0.025	0.861 ± 0.093	0.85 ± 0.052
LEMD3 (UniProt Q9Y2U8)	1.05 ± 0.011	0.991 ± 0.012						
UniProt Q9Y4P1 and related entries	1.04 ± 0.14	1.03 ± 0.058						
UniProt Q9Y5Y5 and related entries	1 ± 0.09	0.835 ± 0.064						
NOC2L (UniProt Q9Y3T9)	1.02 ± 0.049	1.04 ± 0.045						
UniProt Q9Y6M7-13|Q9Y6M7-6|Q9Y6M7-9|Q9Y6M7-5|A0A0A0MST8	1 ± 0.011	1.03 ± 0.026	1.05 ± 0.022	1.03 ± 0.026	1.05 ± 0.036	1.04 ± 0.032	1.06 ± 0.024	1.02 ± 0.034
UniProt Q9Y6I3 and related entries	0.964 ± 0.026	0.938 ± 0.04	0.932 ± 0.045	0.915 ± 0.018	0.915 ± 0.023	0.927 ± 0.037	0.907 ± 0.029	0.894 ± 0.014
LUC7L2 (UniProt Q9Y383)	1.14 ± 0.042	1.75 ± 0.13	1.84 ± 0.14	1.95 ± 0.034	2.05 ± 0.038	2.21 ± 0.066	2.12 ± 0.087	2.11 ± 0.095
UniProt Q9Y5P4 and related entries	1.01 ± 0.045	1.01 ± 0.057	0.9555 ± 0.0053	0.974 ± 0.025	0.948 ± 0.011	0.949 ± 0.024	0.93 ± 0.011	0.954 ± 0.026
TRPV2 (UniProt Q9Y5S1)	1.06 ± 0.034	1.01 ± 0.051	1.02 ± 0.076	1.02 ± 0.073	0.999 ± 0.03	0.955 ± 0.0051	0.965 ± 0.048	0.976 ± 0.023
TMED3 (UniProt Q9Y3Q3)	1.1 ± 0.1	1.08 ± 0.041	1.08 ± 0.12	1.07 ± 0.12	1.06 ± 0.086	1.04 ± 0.13	1.06 ± 0.057	1.04 ± 0.088
ALG5 (UniProt Q9Y673)	1.06 ± 0.11	1.1 ± 0.092	1.03 ± 0.089	1.02 ± 0.074	1.03 ± 0.088	0.97 ± 0.13	1.03 ± 0.1	1.02 ± 0.058
PPIL1 (UniProt Q9Y3C6)	0.943 ± 0.045	0.919 ± 0.089	0.919 ± 0.019	0.9512 ± 0.0074	0.913 ± 0.034	0.963 ± 0.031	0.964 ± 0.016	0.902 ± 0.065

Part of the list above, field by field.
UniProt Q9Y3D0
  NP40-soluble protein abundance (concentration: 0.1mM): 0.909 ± 0.08
  NP40-soluble protein abundance (concentration: 0.5mM): 0.869 ± 0.12
UniProt Q9Y6X3
  NP40-soluble protein abundance (concentration: 0.1mM): 0.9612 ± 0.0053
  NP40-soluble protein abundance (concentration: 0.5mM): 1.07 ± 0.046
  NP40-soluble protein abundance (concentration: 1mM): 0.977 ± 0.053
  NP40-soluble protein abundance (concentration: 2mM): 1.06 ± 0.086
  NP40-soluble protein abundance (concentration: 4mM): 1.15 ± 0.25
  NP40-soluble protein abundance (concentration: 6mM): 1.09 ± 0.26
  NP40-soluble protein abundance (concentration: 8mM): 0.98 ± 0.057
  NP40-soluble protein abundance (concentration: 10mM): 1.11 ± 0.22
